Laboratory results taken from patent US20240417469A1.
Where a chain is given by its changes, count along the chain named. No constants are given. Whether binding was seen depends on the method and setting. For part of these data: Binding calls can cover weak binding; strength is not graded here.

B1: 153A6B1 chimeric mAb (antibody, V domains shown)
VH: QVQLKESGPGLVQPSQTLSLTCTVSGFSLTSYNIHWVRQPPGKGLEWMGRIRYNGDTSYNSALKSRLSISRDTSKNQVFLKMSSLQTDDTGTYYCTRGPYGGSREPLFDYWGQGVMVTVSS
VL: DIKMTQSPSFLSAAVGDRVTINCKTSQNINKYLNWFQQKLGAAPKLLIYTTNNLQTGIPSRFSGSGSGTDFTLTISSLQPEDVATYFCLQHGSGYTFGAGTKLELK
B2: 155A9B1 chimeric mAb (antibody, V domains shown)
VH: B1 VH with I34V, I51V, V78A, S83N, T87I, R104S
VL: B1 VL with A14S, T25A, A42E, K45R, G92N
B3: 192A7B9 chimeric mAb (antibody, V domains shown)
VH: B1 VH with T21N, I34V, I51M, S83N, Y100R, S103Y, R104Y, E105S, P106A
VL: DIQMTQSPSFLSASVGDRVTINCKASQNINRYLNWYQQKLGDAPKVLISIANSLQTGIPSRFSGSGSGTDFTLTISSLQPEDVATYFCLQHNSWYTFGAGTKLELK

Assays:
[1] = molecular target: cynomolgus CD3 protein (cynomolgus); test: ELISA, plate-coated CD3
[2] = molecular target: mouse CD3 protein (mouse); test: ELISA, plate-coated CD3

Binder | binding [1] | binding [2]
B1 | binds | no binding (tested: 15 µg/ml top concentration)
B2 | binds | no binding (tested: 15 µg/ml top concentration)
B3 | binds | no binding (tested: 15 µg/ml top concentration)
